Reference: PubChem BioAssay AID493014 (National Center for Advancing Translational Sciences (NCATS), 2011)
Hit rate of the full screen: of about 340,000 compounds, about 170 (0.05%) were called active. The inconclusive results got no clear call from the source; some entries with a clear call stand among them for comparison. The call rests on the fitted dose curve; in most records, active means well fitted inhibition curve with a large enough effect in the signal ratio, with a control signal flat (not every such curve was filed as active); inconclusive means small, poorly fitted or top-dose-only effect, or effect the other way, or a change in a side signal; inactive means flat fitted curve, though single readings scatter; the % refers to the signal ratio. Where the call is inconclusive, the potency comes from a doubtful curve fit.

Experiment: qHTS Assay to Find Inhibitors of Chronic Active B-Cell Receptor Signaling;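 on activity change, negative = inhibition: plate controls were basal doxycycline-induced cells for no effect and cells given 10 µM MG132 for full effect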
Details: ABC-DLBCL IkBa-CBG/CBR reporter, luminescence ratio (green luciferase fused to IkBa over red control in TMD8 lymphoma cells), 4 h; activity change, negative = inhibition: at 46.1 µM (top of the series)
Procedure, shortened: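 TMD8 ABC-DLBCL cells carrying doxycycline-inducible green luciferase fused to IkappaBalpha plus unfused red luciferase were exposed to compounds (up to 46 uM) for 4 hrs at 37C. Activity came from the overlap-corrected green/red luminescence ratio.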
Potency means the concentration at half of the fitted maximal effect.

| Compound | Potency | activity change, negative = inhibition |
| --- | --- | --- |
| O=C(CSc1nnc(CNc2ccc(F)cc2)o1)c1ccccc1 | inconclusive: 3.55 µM [rising, full curve, poor fit] |  |
| COc1cc(CCc2ccccc2)c(C(=O)O)c(O)c1C/C=C(/C)CCC=C(C)C |  | inconclusive: 7.02% |
| CCNc1nc(NCC)n2c(SC(C)C(=O)c3ccc(C)cc3)nnc2n1 (stereo unspecified) |  | inactive |
| CCN(CC)CCNc1ccnc2cc(Cl)ccc12 | inconclusive: 18.4 µM [falling, partial curve, poor fit] |  |
| COc1ccc(OC)c(-c2nnc(-c3ccc(C)o3)o2)c1 |  | inconclusive: -23.1% |
| CCN(CC)Cc1cc(C(C)=O)ccc1OCC(C)C |  | inconclusive: 0.263% |
| O=C(NCc1cccnc1)c1ccc(COc2cccc3ccccc23)o1 |  | inconclusive: 1.65% |
| CCn1c(=O)c(-c2nc3ccccc3[nH]2)c(O)c2ccccc21 |  | inconclusive: -1.95% |
| Cn1c(-c2ccc3c(c2)OCO3)cnc1NCc1ccccc1 |  | inactive |
| O=C(O)c1ccc(CSc2nnc(-c3cccnc3)n2-c2ccc(Br)cc2)cc1 |  | inconclusive: 9.94% |
| Cc1oc(C(=O)O)cc1COc1ccc2c(C)cc(=O)oc2c1 |  | inconclusive: -13.3% |
| CC(=O)Nc1ccc(S(=O)(=O)Nc2ccccc2N2CCOCC2)cc1 |  | inactive |
| O=C(Nc1cccc(F)c1)N1CC=C(c2ccc(Cl)cc2)CC1 | inconclusive: 20.6 µM [falling, single point] |  |
| Cc1nnc(-c2cnn(C)c2N)n1Cc1ccc2c(c1)OCO2 |  | inactive |
| COc1cc2c(cc1OC)C(c1ccc(-c3cc(Cl)ccc3Cl)o1)=NCC2 |  | inconclusive: 0.0944% |
| Cc1c(C(=O)NCc2cccs2)oc2ccccc12 |  | inactive |
| Cc1cc(/C=C2\C(=N)N3N=C(c4ccco4)SC3=NC2=O)c(C)n1Cc1ccccc1 |  | inactive |
| COc1ccccc1NC(=O)NC1(C(=O)N2CCC(C)CC2)CCCCC1 |  | inactive |
| Cc1onc(-c2ccccc2)c1C(=O)NC(=S)Nc1sc2c(c1C#N)CCCC2 |  | inconclusive: 8.05% |
| COc1ccc(N/C(=C/[N+](=O)[O-])SC)cc1 | inconclusive: 12.6 µM [falling, partial curve, poor fit] |  |
| COc1cc2c(cc1OC)C(c1ccccc1OC(C)C)CC(=O)N2 (stereo unspecified) |  | inactive |
| COc1ccc(-c2nc(N)n[nH]2)cc1 | inconclusive: 32.6 µM [falling, single point] |  |
| CCCc1ccc(OCCNC(=O)CC)cc1 |  | inconclusive: 4.54% |
| CS(=O)(=O)c1ccc(Sc2nc3ccccc3s2)c([N+](=O)[O-])c1 | inconclusive: 4.61 µM [falling, partial curve] |  |
| CCOC(=O)c1sc(NC(C)=O)nc1C |  | inactive |
| COc1ccccc1N=NC1C(=O)N(C(N)=S)N=C1C (stereo unspecified) | inconclusive: 31.6 µM [falling, single point] |  |

| Compound | Potency | activity change, negative = inhibition |
| --- | --- | --- |
| CCN(CC)CCCNC(=O)CSc1nc2c(c(C(F)(F)F)n1)CCc1ccccc1-2 |  | inconclusive: -7.75% |
| C#CCOc1ccccc1CNc1ccccc1 |  | inconclusive: 3.63% |
| COc1ccc(N2CCN(C(c3nnnn3CCc3ccccc3)C(C)C)CC2)cc1 (stereo unspecified) |  | inconclusive: -2.28% |
| CCOc1cc(C2NC(=O)NC(C)=C2C(=O)OCC2CCCCC2)ccc1O (stereo unspecified) | inconclusive: 22.4 µM [falling, partial curve, poor fit] |  |
| CCOC(=O)c1cc(C)n(CC2CCC(C(=O)Nc3cccc(Cl)c3)CC2)c1C (stereo unspecified) |  | inactive |
| S=C(Nc1ccccc1)N1N=C(c2cccs2)CC1c1cccs1 (stereo unspecified) |  | inconclusive: -19.7% |
| C/C(=N\N=C1\NC(=O)C(Cc2ccccc2)S1)c1ccccc1 (stereo unspecified) |  | inconclusive: -16.6% |
| COC(=O)/C=C\C(=O)Nc1cccc([N+](=O)[O-])c1 | inconclusive: 11.6 µM [rising, partial curve, poor fit] |  |
| CCCC(C)c1nnc(NC(=O)C2CC(=O)N(CCc3ccc(F)cc3)C2)s1 (stereo unspecified) |  | inactive |
| CCc1nc2ccccc2c(C(=O)OCCN2C(=O)c3ccccc3C2=O)c1C |  | inconclusive: -0.17% |
| Cc1cccc([C@@H]2[C@@H]3C(=O)N(Cc4ccccc4)C(=O)[C@@H]3[C@]3(Cc4ccc(Cl)cc4)C(=O)N(c4cccc(Br)c4)C(=O)N23)c1 |  | inconclusive: -0.0877% |
| CN(C)CCCn1c(SCC(=O)Nc2nccs2)nnc1-c1ccncc1 | inconclusive: 12.6 µM [falling, single point] |  |
| Cc1ccc(S(=O)(=O)N2[C@@H](c3ccc(Cl)cc3)C(C(=O)O)=C[C@H]2CC2CCCC2)cc1 |  | inactive |
| Oc1cccc(/C=N/N=C/c2cccc(O)c2O)c1O |  | inconclusive: -2.08% |
| Cc1ccc(-c2nnc(NCc3nc4ccccc4[nH]3)c3ccccc23)cc1S(=O)(=O)N(C)C | inconclusive: 18.4 µM [falling, partial curve] |  |
| Cc1ccccc1NC(=O)c1cc([N+](=O)[O-])ccc1NCCN1C(=O)CCC1=O |  | inconclusive: 13.2% |
| COc1ccc(-c2nc(C)c(C(C)=O)n2O)cc1 | inconclusive: 22.4 µM [falling, partial curve] |  |
| Cc1nnc(NC(=O)CSc2nnc(-c3ccco3)o2)s1 | inconclusive: 15.8 µM [falling, partial curve] |  |
| CCN(C(=O)COc1ccc(N(C)S(=O)(=O)c2ccc(NC(C)=O)cc2)cc1)C1CCCCC1 |  | inconclusive: 0.326% |
| COc1ccc2ccccc2c1/C=N/Nc1cccc(C(=O)O)c1 | inconclusive: 0.562 µM [falling, full curve, poor fit] |  |
| CC(C)(CO)NCc1cccs1 | inconclusive: 35.5 µM [falling, partial curve, poor fit] |  |
| COc1ccccc1S(=O)(=O)Cc1ccc(C(=O)NCc2ccccc2)o1 |  | inactive |
| O=C(NCCCN1CCc2ccccc2C1)Nc1ccc(Br)cc1 | inconclusive: 2.06 µM [rising, full curve] |  |
| CC(C)c1ccc(C2=CC(c3cccc(Cl)c3)n3c(nc4ccccc43)N2)cc1 (stereo unspecified) |  | inconclusive: -22.9% |
| C/C(O)=C/c1nc2ccccc2[nH]c1=O |  | inconclusive: -14.2% |

Compounds above that have an NH in an aromatic ring (four):

| Compound | Potency | activity change, negative = inhibition |
| --- | --- | --- |
| CCn1c(=O)c(-c2nc3ccccc3[nH]2)c(O)c2ccccc21 |  | inconclusive: -1.95% |
| COc1ccc(-c2nc(N)n[nH]2)cc1 | inconclusive: 32.6 µM [falling, single point] |  |
| Cc1ccc(-c2nnc(NCc3nc4ccccc4[nH]3)c3ccccc23)cc1S(=O)(=O)N(C)C | inconclusive: 18.4 µM [falling, partial curve] |  |
| C/C(O)=C/c1nc2ccccc2[nH]c1=O |  | inconclusive: -14.2% |
